Experimental data: PubChem BioAssay AID540276 (National Center for Advancing Translational Sciences (NCATS), 2011)
“And” between values parts separate entries of the source, which are not always exact repeats. Equal values may be shown once. In all, about 300,000 compounds went through this assay and about 5,400 (1.8%) were called active. The shares of active, inactive and inconclusive entries below differ from those in the screen. Calls follow the shape of the full dose curve; tested in HEK293 cells. A potency beside an inconclusive call is a rough fit, not a confirmed value.

experiment: qHTS for inhibitors of binding or entry into cells for Marburg Virus; conditions: Marburg virus pseudotyped entry inhibition, cell reporter; activity change, negative = inhibition: at 37.8 µM (top of the series) unless noted
% is scaled to controls: 0 for no effect and ±100 for the full control effect; potency is read from the fitted curve at half-maximal effect.

| SMILES | Potency | activity change, negative = inhibition |
| --- | --- | --- |
| CN(C)CCNc1c2c(c(C#N)c3nc4ccccc4n13)CCCC2 | inconclusive: 1.41 µM [activator, partial curve, poor fit] | – |
| Cc1nnc(SCC(=O)N/N=C/c2cn(-c3ccccc3)nc2-c2ccccc2)n1-c1ccccc1 | inconclusive: 11.2 µM [inhibitor, partial curve, poor fit] | – |
| Cc1nc2ccccc2c2oc(C(=O)NCC3COc4ccccc4O3)cc12 (stereo not drawn) | inconclusive: 8.2 µM [inhibitor, partial curve, poor fit] | – |
| COc1cccc(CC(=NO)c2cccc(OC)c2)c1 | inconclusive: 7.08 µM [inhibitor, full curve, poor fit] | – |
| Cc1cccc(NC(=O)CNC(=O)CNC(=O)Cc2ccccc2)c1 | inconclusive: 35.5 µM [inhibitor, single point] | – |
| O=C(COC(=O)c1ccccc1C(=O)c1ccccc1)Nc1cccc([N+](=O)[O-])c1 | inactive | – |
| CC1CC(C)CN(CC(=O)NC(c2ccccc2)c2ccccc2)C1 (stereo not drawn) | inconclusive: 18.3 µM [inhibitor, single point] | – |
| Cc1cccc(OCC(=O)Nc2sc3c(c2C#N)CCC3)c1 | inactive | – |
| CC(NC(=O)Nc1cccc(Cl)c1)C(c1cccs1)N1CCCC1 (stereo not drawn) | inconclusive: 15.8 µM [inhibitor, partial curve, poor fit] | – |
| O=C1c2ccccc2NC(c2c(Cl)cccc2Cl)N1Cc1ccccc1 (stereo not drawn) | inconclusive: 3.55 µM [inhibitor, partial curve, poor fit] | – |
| CC(=O)Nc1cc(C(C)(C)C)c(O)c(C(C)(C)C)c1 | inactive | – |
| COc1ccc(C(=O)C(CN2CCOCC2)c2ccccc2)cc1F (stereo not drawn) | active: 8.91 µM | – |
| CCOC(=O)c1[nH]c2c(c1Cc1ccccc1OC)C(=O)CC(c1ccccc1)C2 (stereo not drawn) | inactive | – |
| CCC(CC)c1nc(C#N)c(NC(C)c2ccccc2)o1 (stereo not drawn) | inconclusive: 29.1 µM [inhibitor, single point] | – |
| CC1CCN(CC(O)Cn2c3ccccc3c3ccccc32)CC1 (stereo not drawn) | inconclusive: 35.5 µM [inhibitor, single point] | – |
| COC(=O)c1cc(NC(=O)N2c3ccccc3Sc3ccccc32)cc(C(=O)OC)c1 | inconclusive: 29.1 µM [inhibitor, single point] | – |
| Cc1ccc(C(=O)CSc2ccc(-c3ccccc3)nn2)cc1 | inactive | – |
| CCc1ccc(OCC(=O)Nc2ccc3c(c2)OCCO3)cc1 | inconclusive: 11.2 µM [activator, single point] | – |
| COc1ccccc1N(C)S(=O)(=O)c1ccc(C(=O)OCC(=O)N2CCC2)cc1 | inconclusive: 6.31 µM [inhibitor, partial curve, poor fit] | – |
| COc1cc(C(=O)Nc2nc(-c3ccc(F)cc3)cs2)ccc1OCC(=O)N1CCOCC1 | inconclusive: 29.1 µM [inhibitor, single point] | – |
| COc1ccc(NC(=O)CCN2CCCC(C)C2)cc1 (stereo not drawn) | inactive | – |
| CSc1ccccc1C(=O)Nc1cc(C)cc(C)c1 | inconclusive: 7.08 µM [inhibitor, partial curve] | – |
| O=C(Nc1cc(-c2ccc(Cl)cc2)no1)c1ccc(F)cc1 | inactive | – |

Gathered by group: those above containing an aryl thioether with sulfur outside any ring

| SMILES | Potency | activity change, negative = inhibition |
| --- | --- | --- |
| Cc1nnc(SCC(=O)N/N=C/c2cn(-c3ccccc3)nc2-c2ccccc2)n1-c1ccccc1 | inconclusive: 11.2 µM [inhibitor, partial curve, poor fit] | – |
| Cc1ccc(C(=O)CSc2ccc(-c3ccccc3)nn2)cc1 | inactive | – |
| CSc1ccccc1C(=O)Nc1cc(C)cc(C)c1 | inconclusive: 7.08 µM [inhibitor, partial curve] | – |

Additional structures.

| SMILES | Potency | activity change, negative = inhibition |
| --- | --- | --- |
| COc1ccccc1/C=C/C=N/NC(=O)c1cc(-c2ccc(C)o2)[nH]n1 | inconclusive: 7.94 µM [inhibitor, partial curve, poor fit] | – |
| CCOC(=O)C1(CCOc2ccccc2)CCN(Cc2cccc(O)c2)CC1 | inconclusive: 10 µM [inhibitor, partial curve, poor fit] | – |
| Cc1ccc(C)c(N2CCN(C(=O)c3ccc4c(=O)n(CCc5ccccc5)c(=O)[nH]c4c3)CC2)c1 | inactive | – |
| O=C1Nc2ccc(I)cc2/C1=C/c1cc(Br)c(O)c(Br)c1 | inconclusive: 0.126 µM [inhibitor, full curve] | – |
| Cc1c([C@@H](Nc2ccccn2)c2ccccc2)c(=O)n(-c2ccccc2)n1C | inactive | – |
| COc1ccc(N2CCN(C(=O)C3CCN(S(=O)(=O)c4ccc(F)cc4)CC3)CC2)cc1 | inactive | – |
| O=C(c1ccco1)N(Cc1ccc([N+](=O)[O-])cc1)c1ccc(Cl)cc1 | inconclusive: 11.2 µM [inhibitor, single point] | – |
| COc1ccc(/C=C/C2=NNC(=O)CC2)cc1 | inconclusive: 6.31 µM [activator, single point] | – |
| N#Cc1ccc2ccn(CC(=O)NC3CCCCCC3)c2c1 | inconclusive: 0.58 µM [inhibitor, partial curve, poor fit] | – |
| COc1ccccc1C(=O)Oc1ccc(C(C)(C)C)cc1 | inactive | – |
| COCCN(C(=O)c1ccc(C)o1)c1c(N)n(CC(C)C)c(=O)[nH]c1=O | inactive | – |
| O=C(O)CCn1c2c(c3ccccc31)CCCC2 | inactive | – |
| CCN(CC)c1ccc(/C=N/N=C(c2ccccc2)c2ccccc2)c(O)c1 | inconclusive: 18.4 µM [inhibitor, single point] | – |
| COC(=O)c1ccc(N2C(=O)CC(N3CCC(n4c(=O)[nH]c5ccccc54)CC3)C2=O)cc1 (stereo not drawn) | inconclusive: 35.5 µM [activator, single point] | – |
| c1ccc(-c2n[nH]c(-c3ccccn3)n2)nc1 | inactive and inconclusive: 631 nM [activator, full curve, poor fit] | – |
| CC(=O)c1cc(NC(=O)c2cccc(C(F)(F)F)c2)c(=O)oc1C | inconclusive: 5.01 µM [inhibitor, single point] | – |
| O=C(CN1CCN(S(=O)(=O)c2ccccc2)CC1)NCCc1ccccc1 | inactive | – |
| CC(=O)c1ccc(NC(=O)C2=CC(c3ccc(C)cc3)=NS(=O)(=O)N2C)cc1 | inconclusive: 11.2 µM [inhibitor, single point] | – |
| COc1ccccc1N(CC(=O)N/N=C/c1ccc(OCC(=O)NCc2ccco2)cc1)S(=O)(=O)c1ccc(C)cc1 | inconclusive: 35.5 µM [inhibitor, single point] | – |
| CCOC(=O)C=C1CCN(c2ncc(C(F)(F)F)cc2Cl)CC1 | inactive | – |
| COc1cccc(CC2(CO)CCCN(CC3=Cc4cc(Cl)ccc4OC3)C2)c1 (stereo not drawn) | inconclusive: 3.16 µM [activator, single point] | – |
| CC(NC(=O)Nc1ccc([N+](=O)[O-])cc1)C(c1cccs1)N1CCCC1 (stereo not drawn) | inconclusive: 8.91 µM [inhibitor, partial curve, poor fit] | – |
| CCn1nc(C(=O)NCCc2ccc3c(c2)OCCO3)c2ccccc2c1=O | inconclusive: 15.8 µM [inhibitor, single point] | – |

| SMILES | Potency | activity change, negative = inhibition |
| --- | --- | --- |
| CCOC(=O)c1ccc(Nc2c(CC)c(C)nc3ncnn23)cc1 | inactive | – |
| COc1ccc(OCC(=O)N2CCCC(N3CCN(c4ccccc4C)CC3)C2)cc1 (stereo not drawn) | inconclusive: 35.5 µM [inhibitor, single point] | – |
| CCOC(=O)c1oc2ccc(Br)cc2c1NC(=O)CN1CCN(C)CC1 | inconclusive: 35.5 µM [inhibitor, single point] | – |
| O=C(Cn1nc(-c2ccccc2Cl)ccc1=O)Nc1ccccc1-c1ccccc1 | inactive | – |
| Cn1c(=O)c2c(nc(N/N=C/c3ccc(OC(=O)c4ccco4)cc3)n2Cc2ccccc2Cl)n(C)c1=O | inconclusive: 5.62 µM [inhibitor, single point] | – |
| O=C(CCCCl)N1CCc2[nH]c3ccccc3c2C1 | inconclusive: 0.316 µM [activator, full curve, poor fit] | – |
| NS(=O)(=O)c1ccc(S(=O)(=O)N(Cc2ccccc2F)CC2CCCO2)cc1 (stereo not drawn) | inactive | – |
| O=C(CSc1c2c(nc3cc(Cl)ccc13)CCCC2)N1CCN(c2ccccc2)CC1 | inactive | – |
| CCOC(=O)c1c(-c2ccc(C)cc2)csc1NC(=O)c1cc(=O)c2cc(C)cc(C)c2o1 | inactive | – |
| CC(=O)NCCn1c(SCC(=O)NC2CCCCC2)nc2ccccc2c1=O | – | inconclusive: 16.9% [activator] [at 46.1 µM] |
| COc1ccc(S(=O)(=O)N2CCN(C3CCCCCCC3)CC2)cc1 | inconclusive: 35.5 µM [inhibitor, single point] | – |
| CCN(CC)S(=O)(=O)c1ccc2c(c1)c(=O)c(C(=O)NCc1ccccc1Cl)cn2C | inconclusive: 35.5 µM [activator, single point] | – |
| Cc1ccc(OCc2nc(-c3ccccn3)no2)c(Br)c1 | inconclusive: 0.651 µM [activator, partial curve, poor fit] | – |
| N#C/C(=C/c1cn(-c2ccccc2)nc1-c1cccc(OCc2ccccc2)c1)C(=O)NCCCn1ccnc1 | active: 11.2 µM | – |
| O=C(c1cc(-c2ccc3c(c2)OCO3)on1)N1CCOCC1 | inconclusive: 6.51 µM [inhibitor, full curve, poor fit] | – |
| Cc1cc(=O)nc2c3ccccc3n(CC(=O)NCCC3=CCCCC3)n12 | inactive | – |
| CC(c1nnc(SCn2nnc3ccccc3c2=O)n1-c1ccc(Cl)cc1)N(C)C (stereo not drawn) | inactive | – |
| Cc1cc(C)c2c(CC(=O)NCCc3ccccc3)coc2c1 | inconclusive: 10 µM [inhibitor, partial curve, poor fit] | – |
| O=C(COc1ccccc1)Nc1ccc(C(=O)N2CCCC2)cc1 | inconclusive: 12.6 µM [activator, single point] | – |
| Clc1ccc(-c2cc3ccccc3[nH]2)cc1 | inconclusive: 22.4 µM [inhibitor, single point] | – |
| C=CCSc1nc2ccccc2c(=O)n1Cc1ccccc1 | inconclusive: 14.1 µM [inhibitor, partial curve, poor fit] | – |
| CC(C)S(=O)(=O)c1csc(C(=O)Nc2ccc(F)cc2)c1N | inconclusive: 8.91 µM [inhibitor, partial curve, poor fit] | – |
